PubChem BioAssay AID504774, Drosophila RNAi Screening Center, 2011
Purpose: 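Fly genes whose loss alters survival after alkylation damage to DNA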 (primary screen). Cells: Drosophila Kc167 cells. Reagents: long dsRNA against Drosophila genes, about 0.25 µg dsRNA per well. Time to read-out: about 6 days: 3 days knock-down, then 3 days with or without MMS. Treatment: methyl methanesulphonate 0.004% (w/v) for 3 days after knock-down. Detection: 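ATP-dependent luminescence as a measure of live cells in MMS-exposed wells, quantile normalised within each plate, with replicate values also given as a mean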. Reading the numbers: mean viability with MMS and viability with MMS: higher = more surviving cells after MMS.
The screen tested about 23,000 reagents; this is a random part of those with a known target gene and a result. 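Values are quantile-normalised luminescence on an arbitrary scale; higher means more cells surviving MMS.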 Further read-outs or replicates are left out here.

Silencing of Hesr (GeneID 32800) [DRSC19965] resulted in: mean viability with MMS 3.64e6; viability with MMS, replicate 1 = 4.14e6.
Against otp (GeneID 37364) [DRSC04050], the entry reads mean viability with MMS 3.52e6; viability with MMS, replicate 1 = 3.91e6.
Knock-down of otp (GeneID 37364) [DRSC04707] resulted in: mean viability with MMS 3.33e6; viability with MMS, replicate 1 = 3.70e6.
After knock-down of BomS3 (GeneID 50209) [DRSC21458], the screen gave mean viability with MMS 3.50e6; viability with MMS, replicate 1 = 3.94e6.
With knock-down of Usp2 (GeneID 33132) [DRSC20590], the record shows mean viability with MMS 2.30e6; viability with MMS, replicate 1 = 3.95e6.
Usp2 (GeneID 33132) [DRSC20632] showed mean viability with MMS 3.50e6; viability with MMS, replicate 1 = 4.04e6.
For Usp2 (GeneID 33132) [DRSC20633], the entry reads mean viability with MMS 3.43e6; viability with MMS, replicate 1 = 3.91e6.
For Nplp4 (GeneID 50190) [DRSC00391], the values are mean viability with MMS 3.45e6; viability with MMS, replicate 1 = 3.99e6.
Depletion of Swip-1 (GeneID 35158) [DRSC02083] came out at: mean viability with MMS 3.58e6; viability with MMS, replicate 1 = 4.32e6.
For Swip-1 (GeneID 35158) [DRSC02084], the entry reads mean viability with MMS 3.67e6; viability with MMS, replicate 1 = 4.15e6.
CG31275 (GeneID 326131) [DRSC16919] showed mean viability with MMS 3.57e6; viability with MMS, replicate 1 = 4.11e6.
Tsp42Ec (GeneID 35612) [DRSC06192] showed mean viability with MMS 3.50e6; viability with MMS, replicate 1 = 4.04e6.
Knock-down of dnk (GeneID 42273) [DRSC16933] gave: mean viability with MMS 3.54e6; viability with MMS, replicate 1 = 4.10e6.
Fim (GeneID 32721) [DRSC20243] showed mean viability with MMS 3.65e6; viability with MMS, replicate 1 = 4.25e6.
CG6788 (GeneID 32773) [DRSC20007] gave mean viability with MMS 3.50e6; viability with MMS, replicate 1 = 4.02e6.
With knock-down of aPKC (GeneID 47594) [DRSC05515] the results were mean viability with MMS 3.69e6; viability with MMS, replicate 1 = 4.08e6.
Knock-down of aPKC (GeneID 47594) [DRSC07639] gave: mean viability with MMS 3.51e6; viability with MMS, replicate 1 = 4.05e6.
Knock-down of CG31019 (GeneID 318558) [DRSC13994] gave: mean viability with MMS 3.41e6; viability with MMS, replicate 1 = 3.95e6.
CG32295 (GeneID 317962) [DRSC23259] gave mean viability with MMS 3.47e6; viability with MMS, replicate 1 = 3.98e6.
For Xpac (GeneID 31357) [DRSC18730] the deposit lists mean viability with MMS 3.54e6; viability with MMS, replicate 1 = 4.02e6.
CG10433 (GeneID 37458) [DRSC04068] showed mean viability with MMS 3.66e6; viability with MMS, replicate 1 = 3.97e6.
Against ND-B15 (GeneID 36640) [DRSC06199] the deposit lists mean viability with MMS 3.44e6; viability with MMS, replicate 1 = 4.00e6.
Knock-down of CG32199 (GeneID 40028) [DRSC09990] gave: mean viability with MMS 3.52e6; viability with MMS, replicate 1 = 4.01e6.
After knock-down of CG31126 (GeneID 326121) [DRSC14623] the results were mean viability with MMS 3.74e6; viability with MMS, replicate 1 = 4.34e6.

6 of these entries in another layout.
Gene	dsRNA	mean viability with MMS	viability with MMS, replicate 1
Usp2 (GeneID 33132)	DRSC20632	3.50e6	4.04e6
Usp2 (GeneID 33132)	DRSC20633	3.43e6	3.91e6
Nplp4 (GeneID 50190)	DRSC00391	3.45e6	3.99e6
Swip-1 (GeneID 35158)	DRSC02083	3.58e6	4.32e6
Swip-1 (GeneID 35158)	DRSC02084	3.67e6	4.15e6
CG31275 (GeneID 326131)	DRSC16919	3.57e6	4.11e6

Next entries follow.
Silencing of CG7272 (GeneID 39670) [DRSC10795] came out at: mean viability with MMS 3.52e6; viability with MMS, replicate 1 = 4.00e6.
With knock-down of Pex12 (GeneID 33256) [DRSC00622], the record shows mean viability with MMS 3.37e6; viability with MMS, replicate 1 = 3.77e6.
After knock-down of CG5968 (GeneID 34986) [DRSC02916] the results were mean viability with MMS 3.33e6; viability with MMS, replicate 1 = 3.74e6.
Silencing of CG9926 (GeneID 41700) [DRSC16582] came out at: mean viability with MMS 3.67e6; viability with MMS, replicate 1 = 4.15e6.
CG13284 (GeneID 35021) [DRSC02256] gave mean viability with MMS 3.58e6; viability with MMS, replicate 1 = 4.01e6.
Depletion of CG11594 (GeneID 38473) [DRSC08207] came out at: mean viability with MMS 3.73e6; viability with MMS, replicate 1 = 4.14e6.
After knock-down of Eig71Ec (GeneID 39703) [DRSC11150], the record shows mean viability with MMS 3.64e6; viability with MMS, replicate 1 = 4.14e6.
Against Atg17 (GeneID 40700) [DRSC12221], the entry reads mean viability with MMS 3.63e6; viability with MMS, replicate 1 = 4.14e6.
With knock-down of SppL (GeneID 43128) [DRSC15228], the record shows mean viability with MMS 3.73e6; viability with MMS, replicate 1 = 4.23e6.
CG4942 (GeneID 39044) [DRSC10462] showed mean viability with MMS 3.61e6; viability with MMS, replicate 1 = 4.12e6.
Against magu (GeneID 36048) [DRSC06832], the values are mean viability with MMS 3.56e6; viability with MMS, replicate 1 = 4.13e6.
Depletion of CG17834 (GeneID 34191) [DRSC02637] resulted in: mean viability with MMS 3.53e6; viability with MMS, replicate 1 = 4.07e6.
After knock-down of tx (retired record) (GeneID 44875) [DRSC16931] the results were mean viability with MMS 3.55e6; viability with MMS, replicate 1 = 4.02e6.
After knock-down of DIP-delta (GeneID 5740816) [DRSC10214], the screen gave mean viability with MMS 3.50e6; viability with MMS, replicate 1 = 3.96e6.
DIP-delta (GeneID 5740816) [DRSC10450] gave mean viability with MMS 3.70e6; viability with MMS, replicate 1 = 4.30e6.
Against hoe1 (GeneID 249663) [DRSC00265], the values are mean viability with MMS 3.37e6; viability with MMS, replicate 1 = 3.74e6.
With knock-down of hoe1 (GeneID 249663) [DRSC00333], the record shows mean viability with MMS 3.64e6; viability with MMS, replicate 1 = 3.98e6.
Against hoe1 (GeneID 249663) [DRSC00353], the values are mean viability with MMS 3.66e6; viability with MMS, replicate 1 = 4.19e6.
For Map60 (GeneID 35991) [DRSC07464] the deposit lists mean viability with MMS 3.89e6; viability with MMS, replicate 1 = 4.29e6.
CG7992 (GeneID 32917) [DRSC20070] gave mean viability with MMS 3.61e6; viability with MMS, replicate 1 = 4.20e6.
After knock-down of Cyt-c1L (GeneID 43457) [DRSC14860], the screen gave mean viability with MMS 3.50e6; viability with MMS, replicate 1 = 3.84e6.
Knock-down of Cyt-c1L (GeneID 43457) [DRSC22096] came out at: mean viability with MMS 3.68e6; viability with MMS, replicate 1 = 4.13e6.
